# Assay results from the supplement of paper PMC12819154, “High-throughput peptide-centric local stability assay extends protein–ligand identification to membrane proteins, tissues and bacteria” (Nature Structural & Molecular Biology, 2025).
# Chains of the proteins cited; added tags and fusions are not shown. Lines headed by an entry give the natural chain unless they say otherwise; changes in a name come on top.
# UniProt Q02105: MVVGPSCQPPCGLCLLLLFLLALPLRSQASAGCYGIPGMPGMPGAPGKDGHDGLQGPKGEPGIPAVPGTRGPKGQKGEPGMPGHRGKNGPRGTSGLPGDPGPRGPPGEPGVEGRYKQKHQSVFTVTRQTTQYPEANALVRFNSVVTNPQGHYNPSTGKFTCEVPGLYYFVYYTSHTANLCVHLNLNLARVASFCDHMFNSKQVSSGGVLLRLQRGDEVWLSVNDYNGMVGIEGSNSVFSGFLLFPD
# UniProt Q00993, whole entry: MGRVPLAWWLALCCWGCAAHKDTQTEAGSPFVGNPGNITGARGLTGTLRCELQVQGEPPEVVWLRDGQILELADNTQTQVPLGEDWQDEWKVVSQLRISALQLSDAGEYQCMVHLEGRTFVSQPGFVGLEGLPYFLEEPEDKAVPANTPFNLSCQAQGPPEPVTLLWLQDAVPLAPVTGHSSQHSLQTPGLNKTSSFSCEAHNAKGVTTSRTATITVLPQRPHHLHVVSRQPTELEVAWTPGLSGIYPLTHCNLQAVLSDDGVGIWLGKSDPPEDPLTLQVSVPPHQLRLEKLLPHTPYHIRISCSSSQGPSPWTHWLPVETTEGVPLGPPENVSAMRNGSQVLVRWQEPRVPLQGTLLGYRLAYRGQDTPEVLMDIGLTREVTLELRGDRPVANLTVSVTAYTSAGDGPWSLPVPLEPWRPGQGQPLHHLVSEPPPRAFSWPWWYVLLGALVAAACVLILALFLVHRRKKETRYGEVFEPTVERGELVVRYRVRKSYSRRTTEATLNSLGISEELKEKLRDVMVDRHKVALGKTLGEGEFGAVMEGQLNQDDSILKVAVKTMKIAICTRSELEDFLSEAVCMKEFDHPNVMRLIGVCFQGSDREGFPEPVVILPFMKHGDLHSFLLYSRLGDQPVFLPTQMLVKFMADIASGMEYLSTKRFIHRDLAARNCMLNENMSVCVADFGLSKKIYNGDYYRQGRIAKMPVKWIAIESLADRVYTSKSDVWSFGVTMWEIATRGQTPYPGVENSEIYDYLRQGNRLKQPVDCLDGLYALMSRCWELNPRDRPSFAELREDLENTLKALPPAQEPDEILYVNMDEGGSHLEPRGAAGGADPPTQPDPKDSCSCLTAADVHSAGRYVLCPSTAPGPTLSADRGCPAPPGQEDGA
# UniProt P81269: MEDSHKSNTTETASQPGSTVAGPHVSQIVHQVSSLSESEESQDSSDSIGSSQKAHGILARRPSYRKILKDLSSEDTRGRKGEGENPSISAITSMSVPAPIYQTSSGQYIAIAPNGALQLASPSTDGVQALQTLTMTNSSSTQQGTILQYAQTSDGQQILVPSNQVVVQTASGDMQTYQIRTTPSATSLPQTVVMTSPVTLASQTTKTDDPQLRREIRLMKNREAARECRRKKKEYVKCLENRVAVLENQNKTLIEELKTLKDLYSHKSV
# UniProt P70441: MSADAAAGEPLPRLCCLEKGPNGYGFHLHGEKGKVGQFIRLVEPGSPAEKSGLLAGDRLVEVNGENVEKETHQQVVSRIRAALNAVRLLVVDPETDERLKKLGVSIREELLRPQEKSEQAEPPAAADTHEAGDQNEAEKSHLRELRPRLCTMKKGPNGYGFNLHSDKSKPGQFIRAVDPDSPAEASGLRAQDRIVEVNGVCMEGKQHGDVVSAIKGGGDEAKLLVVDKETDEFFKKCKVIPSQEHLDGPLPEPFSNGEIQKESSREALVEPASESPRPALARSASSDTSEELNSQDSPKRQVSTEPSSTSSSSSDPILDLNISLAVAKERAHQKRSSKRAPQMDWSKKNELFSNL
# UniProt P70188: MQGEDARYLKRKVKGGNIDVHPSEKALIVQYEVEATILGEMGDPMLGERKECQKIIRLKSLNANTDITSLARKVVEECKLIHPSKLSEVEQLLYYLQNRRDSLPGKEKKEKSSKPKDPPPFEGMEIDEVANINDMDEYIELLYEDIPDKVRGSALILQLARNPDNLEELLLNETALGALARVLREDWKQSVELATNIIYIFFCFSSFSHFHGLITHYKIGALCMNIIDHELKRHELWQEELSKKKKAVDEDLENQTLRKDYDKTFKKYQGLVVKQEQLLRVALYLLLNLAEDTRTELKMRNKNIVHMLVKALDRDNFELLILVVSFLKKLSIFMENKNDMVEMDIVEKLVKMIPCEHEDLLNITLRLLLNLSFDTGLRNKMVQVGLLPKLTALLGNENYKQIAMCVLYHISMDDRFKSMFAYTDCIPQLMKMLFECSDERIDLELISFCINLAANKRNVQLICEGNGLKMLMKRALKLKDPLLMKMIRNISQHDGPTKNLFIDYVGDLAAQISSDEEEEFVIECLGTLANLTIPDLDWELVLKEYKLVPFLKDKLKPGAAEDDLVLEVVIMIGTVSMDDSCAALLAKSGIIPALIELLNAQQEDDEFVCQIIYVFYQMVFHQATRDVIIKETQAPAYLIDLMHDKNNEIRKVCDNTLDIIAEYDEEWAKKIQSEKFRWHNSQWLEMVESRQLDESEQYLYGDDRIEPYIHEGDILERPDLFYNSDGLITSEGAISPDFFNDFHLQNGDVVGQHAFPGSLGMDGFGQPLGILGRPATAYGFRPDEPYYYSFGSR
# UniProt P70444: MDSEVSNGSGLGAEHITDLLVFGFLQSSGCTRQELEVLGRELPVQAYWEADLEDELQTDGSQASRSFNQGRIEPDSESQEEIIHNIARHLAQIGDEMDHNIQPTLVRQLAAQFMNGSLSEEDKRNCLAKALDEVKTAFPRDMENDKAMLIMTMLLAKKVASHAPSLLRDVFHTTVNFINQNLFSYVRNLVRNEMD
# UniProt P80317, whole entry: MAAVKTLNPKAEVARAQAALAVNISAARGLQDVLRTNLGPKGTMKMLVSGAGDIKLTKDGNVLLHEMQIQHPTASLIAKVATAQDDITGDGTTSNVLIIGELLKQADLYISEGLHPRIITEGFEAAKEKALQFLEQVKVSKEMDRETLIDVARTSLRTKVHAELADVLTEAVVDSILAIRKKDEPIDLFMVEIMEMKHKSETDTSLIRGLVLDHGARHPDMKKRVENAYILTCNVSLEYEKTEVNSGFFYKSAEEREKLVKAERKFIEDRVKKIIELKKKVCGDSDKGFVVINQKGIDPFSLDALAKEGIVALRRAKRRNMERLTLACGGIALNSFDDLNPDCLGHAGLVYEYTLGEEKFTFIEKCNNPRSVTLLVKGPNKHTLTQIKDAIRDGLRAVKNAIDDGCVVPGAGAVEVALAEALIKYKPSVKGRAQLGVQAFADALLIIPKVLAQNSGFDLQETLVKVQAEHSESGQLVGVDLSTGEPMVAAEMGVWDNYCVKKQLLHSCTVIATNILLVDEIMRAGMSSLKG
# UniProt P70303: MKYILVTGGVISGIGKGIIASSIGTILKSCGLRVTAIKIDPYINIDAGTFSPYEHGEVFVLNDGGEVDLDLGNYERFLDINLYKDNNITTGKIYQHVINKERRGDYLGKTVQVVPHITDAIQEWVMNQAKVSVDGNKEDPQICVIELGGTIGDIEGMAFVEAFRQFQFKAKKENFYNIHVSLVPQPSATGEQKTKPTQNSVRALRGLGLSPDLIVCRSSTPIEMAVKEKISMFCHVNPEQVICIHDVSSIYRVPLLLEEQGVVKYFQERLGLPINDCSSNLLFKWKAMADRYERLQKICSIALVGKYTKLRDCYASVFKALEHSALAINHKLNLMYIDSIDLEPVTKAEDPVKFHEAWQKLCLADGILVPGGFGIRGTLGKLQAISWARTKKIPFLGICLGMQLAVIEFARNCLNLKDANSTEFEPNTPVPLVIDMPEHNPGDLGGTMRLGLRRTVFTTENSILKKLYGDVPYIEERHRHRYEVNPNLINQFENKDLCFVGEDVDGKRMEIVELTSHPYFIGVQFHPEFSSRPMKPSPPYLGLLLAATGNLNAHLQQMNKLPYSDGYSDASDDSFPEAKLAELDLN
# UniProt P86049: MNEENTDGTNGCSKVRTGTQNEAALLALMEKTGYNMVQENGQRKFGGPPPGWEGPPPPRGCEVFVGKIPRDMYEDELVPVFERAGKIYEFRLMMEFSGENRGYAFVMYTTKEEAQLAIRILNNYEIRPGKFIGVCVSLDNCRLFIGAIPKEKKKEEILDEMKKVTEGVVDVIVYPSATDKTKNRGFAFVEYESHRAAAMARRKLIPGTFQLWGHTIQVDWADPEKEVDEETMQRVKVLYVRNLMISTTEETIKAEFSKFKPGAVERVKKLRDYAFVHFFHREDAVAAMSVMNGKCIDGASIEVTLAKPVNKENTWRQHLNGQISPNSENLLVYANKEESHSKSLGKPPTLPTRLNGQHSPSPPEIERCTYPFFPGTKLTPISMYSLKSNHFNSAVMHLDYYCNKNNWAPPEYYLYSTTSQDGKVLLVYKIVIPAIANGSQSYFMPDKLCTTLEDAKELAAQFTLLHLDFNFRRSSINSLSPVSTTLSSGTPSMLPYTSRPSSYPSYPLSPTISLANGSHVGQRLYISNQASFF
# UniProt P97411: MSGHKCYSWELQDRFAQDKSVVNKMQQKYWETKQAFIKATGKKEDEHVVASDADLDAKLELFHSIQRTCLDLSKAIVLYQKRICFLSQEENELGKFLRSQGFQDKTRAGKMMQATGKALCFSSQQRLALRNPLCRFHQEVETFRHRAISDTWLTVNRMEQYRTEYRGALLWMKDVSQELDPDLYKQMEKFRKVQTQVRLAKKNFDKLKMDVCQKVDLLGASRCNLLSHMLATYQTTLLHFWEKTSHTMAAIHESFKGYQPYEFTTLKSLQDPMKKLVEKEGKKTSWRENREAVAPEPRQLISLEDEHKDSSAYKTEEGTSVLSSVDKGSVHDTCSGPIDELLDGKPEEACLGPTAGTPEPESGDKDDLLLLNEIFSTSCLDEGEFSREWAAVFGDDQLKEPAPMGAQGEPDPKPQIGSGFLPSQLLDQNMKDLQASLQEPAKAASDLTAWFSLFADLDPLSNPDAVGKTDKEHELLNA
# UniProt P70353: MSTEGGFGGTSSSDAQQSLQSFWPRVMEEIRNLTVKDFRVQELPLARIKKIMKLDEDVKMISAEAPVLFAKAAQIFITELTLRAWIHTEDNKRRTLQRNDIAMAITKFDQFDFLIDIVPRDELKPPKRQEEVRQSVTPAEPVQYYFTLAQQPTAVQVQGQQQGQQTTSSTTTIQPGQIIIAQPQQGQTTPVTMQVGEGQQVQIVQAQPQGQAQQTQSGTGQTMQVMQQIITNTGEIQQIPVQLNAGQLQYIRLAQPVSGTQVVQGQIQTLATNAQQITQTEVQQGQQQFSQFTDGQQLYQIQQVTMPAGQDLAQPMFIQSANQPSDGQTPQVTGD
# UniProt P70388: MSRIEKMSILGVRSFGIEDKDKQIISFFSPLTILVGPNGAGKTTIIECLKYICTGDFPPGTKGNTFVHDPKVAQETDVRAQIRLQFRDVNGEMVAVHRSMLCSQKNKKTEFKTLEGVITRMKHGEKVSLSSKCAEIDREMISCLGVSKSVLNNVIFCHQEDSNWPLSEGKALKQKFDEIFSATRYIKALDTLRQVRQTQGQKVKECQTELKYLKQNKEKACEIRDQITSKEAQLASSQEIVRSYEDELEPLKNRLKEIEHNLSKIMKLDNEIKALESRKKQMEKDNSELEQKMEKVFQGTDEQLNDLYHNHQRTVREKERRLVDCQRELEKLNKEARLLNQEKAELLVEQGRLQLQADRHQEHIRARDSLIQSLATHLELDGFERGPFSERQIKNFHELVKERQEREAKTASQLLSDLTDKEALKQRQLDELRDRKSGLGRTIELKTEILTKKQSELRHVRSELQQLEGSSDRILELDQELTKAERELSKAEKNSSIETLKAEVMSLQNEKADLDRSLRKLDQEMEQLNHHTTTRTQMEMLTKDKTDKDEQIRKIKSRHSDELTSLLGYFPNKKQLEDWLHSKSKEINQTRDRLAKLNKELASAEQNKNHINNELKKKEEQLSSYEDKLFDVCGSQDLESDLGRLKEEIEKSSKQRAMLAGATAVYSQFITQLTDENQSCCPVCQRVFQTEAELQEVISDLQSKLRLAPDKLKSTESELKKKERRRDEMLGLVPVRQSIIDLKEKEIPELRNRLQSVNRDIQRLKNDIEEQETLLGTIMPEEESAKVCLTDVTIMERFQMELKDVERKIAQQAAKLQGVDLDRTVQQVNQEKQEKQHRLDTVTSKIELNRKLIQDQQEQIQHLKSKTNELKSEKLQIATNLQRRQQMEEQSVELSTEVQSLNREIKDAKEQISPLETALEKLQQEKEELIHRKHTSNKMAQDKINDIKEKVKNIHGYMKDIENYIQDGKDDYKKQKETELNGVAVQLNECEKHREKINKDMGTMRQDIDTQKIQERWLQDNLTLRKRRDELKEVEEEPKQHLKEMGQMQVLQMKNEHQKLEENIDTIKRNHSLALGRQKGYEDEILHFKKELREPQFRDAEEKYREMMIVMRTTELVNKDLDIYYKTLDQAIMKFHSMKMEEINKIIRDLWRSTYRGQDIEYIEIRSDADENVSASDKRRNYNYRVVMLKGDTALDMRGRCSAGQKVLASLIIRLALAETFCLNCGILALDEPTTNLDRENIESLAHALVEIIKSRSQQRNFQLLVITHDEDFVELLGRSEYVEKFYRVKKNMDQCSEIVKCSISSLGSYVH
# Some of the results follow. Small differences around the control level are noise.
# Compound: CN[C@@H]1C[C@H]2O[C@@](C)([C@@H]1OC)n1c3ccccc3c3c4c(c5c6ccccc6n2c5c31)C(=O)NC4 [staurosporine]
# Assay: log2 fold change of tryptic peptide abundance, ligand vs vehicle (limited proteolysis) (log2 ratio); higher = more trypsin-susceptible (destabilized)
# Conditions: ligand concentration: 20 uM; sample: mouse liver crude lysate; replicate design: treated separately
row,Target,log2 fold change
1,"UniProt P97480 (peptide sequence: KADASSSQDSELER, peptide start residue: 228)",0.306
2,"UniProt Q02105 (peptide sequence: GTSGLPGDPGPR, peptide start residue: 92)",-0.0996
3,"UniProt P97821 (peptide sequence: VNMNAAHLGGLQER, peptide start residue: 149)",0.297
4,"UniProt P70213 (peptide sequence: MHINDLK, peptide start residue: 107)",0.305
5,"UniProt P97367 (peptide sequence: IVQPMIDQSNR, peptide start residue: 334)",-0.0528
6,"UniProt Q00993 (peptide sequence: WIAIESLADR, peptide start residue: 709)",-0.67
7,"UniProt P97460 (peptide sequence: LATPQFLK, peptide start residue: 232)",0.092
8,"UniProt P81269 (peptide sequence: VAVLENQNK, peptide start residue: 301)",-0.11
9,"UniProt P70441 (peptide sequence: LLVVDKETDEFFK, peptide start residue: 223)",-0.177
10,"UniProt P70188 (peptide sequence: AVDEDLENQTLRK, peptide start residue: 247)",-0.291
11,"UniProt P70444 (peptide sequence: VASHAPSLLR, peptide start residue: 159)",0.404
12,"UniProt P97760 (peptide sequence: ITELTEENVK, peptide start residue: 11)",0.388
13,"UniProt P80317 (peptide sequence: GIDPFSLDALAK, peptide start residue: 296)",-0.295
14,"UniProt P70303 (peptide sequence: IYQHVINK, peptide start residue: 93)",-1.37
15,"UniProt P86049 (peptide sequence: GFAFVEYESHR, peptide start residue: 180)",0.0303
16,"UniProt P97411 (peptide sequence: EAVAPEPR, peptide start residue: 291)",0.00721
17,"UniProt P80313 (peptide sequence: SLHDAIMIVRR, peptide start residue: 388)",-0.55
18,"UniProt P70460 (peptide sequence: YNQATPIFHQWR, peptide start residue: 72)",-0.404
19,"UniProt P70271 (peptide sequence: LYCENHAK, peptide start residue: 300)",-0.254
20,"UniProt Q00724 (peptide sequence: YWGVASFLQR, peptide start residue: 108)",-0.143
21,"UniProt P79457 (peptide sequence: VYTQCFTAQK, peptide start residue: 459)",0.373
22,"UniProt P97333 (peptide sequence: TFCHWEHDSHAQLR, peptide start residue: 659)",0.0799
23,"UniProt P70353 (peptide sequence: AWIHTEDNKR, peptide start residue: 84)",0.494
24,"UniProt P70388 (peptide sequence: NEHQKLEENIDTIKR, peptide start residue: 1055)",0.455
25,"UniProt Q01721 (peptide sequence: GDLPHGPGR, peptide start residue: 300)",-0.172

# A stretch from the list above, as a working copy:
row,Target,log2 fold change
3,"UniProt P97821 (peptide sequence: VNMNAAHLGGLQER, peptide start residue: 149)",0.297
4,"UniProt P70213 (peptide sequence: MHINDLK, peptide start residue: 107)",0.305
